In PMC3338797 one finds binding data, which are given here for eight molecules.

Sequences of proteins named here, by UniProt entry; tags and fusion partners are left off. A change or cut given only in a name is not applied to a line headed by its entry. A line that says so, or that is headed by a name, gives the form on record, which may keep a tag or linker.
Flag-tagged c-Abl, wild type (P00519, form named): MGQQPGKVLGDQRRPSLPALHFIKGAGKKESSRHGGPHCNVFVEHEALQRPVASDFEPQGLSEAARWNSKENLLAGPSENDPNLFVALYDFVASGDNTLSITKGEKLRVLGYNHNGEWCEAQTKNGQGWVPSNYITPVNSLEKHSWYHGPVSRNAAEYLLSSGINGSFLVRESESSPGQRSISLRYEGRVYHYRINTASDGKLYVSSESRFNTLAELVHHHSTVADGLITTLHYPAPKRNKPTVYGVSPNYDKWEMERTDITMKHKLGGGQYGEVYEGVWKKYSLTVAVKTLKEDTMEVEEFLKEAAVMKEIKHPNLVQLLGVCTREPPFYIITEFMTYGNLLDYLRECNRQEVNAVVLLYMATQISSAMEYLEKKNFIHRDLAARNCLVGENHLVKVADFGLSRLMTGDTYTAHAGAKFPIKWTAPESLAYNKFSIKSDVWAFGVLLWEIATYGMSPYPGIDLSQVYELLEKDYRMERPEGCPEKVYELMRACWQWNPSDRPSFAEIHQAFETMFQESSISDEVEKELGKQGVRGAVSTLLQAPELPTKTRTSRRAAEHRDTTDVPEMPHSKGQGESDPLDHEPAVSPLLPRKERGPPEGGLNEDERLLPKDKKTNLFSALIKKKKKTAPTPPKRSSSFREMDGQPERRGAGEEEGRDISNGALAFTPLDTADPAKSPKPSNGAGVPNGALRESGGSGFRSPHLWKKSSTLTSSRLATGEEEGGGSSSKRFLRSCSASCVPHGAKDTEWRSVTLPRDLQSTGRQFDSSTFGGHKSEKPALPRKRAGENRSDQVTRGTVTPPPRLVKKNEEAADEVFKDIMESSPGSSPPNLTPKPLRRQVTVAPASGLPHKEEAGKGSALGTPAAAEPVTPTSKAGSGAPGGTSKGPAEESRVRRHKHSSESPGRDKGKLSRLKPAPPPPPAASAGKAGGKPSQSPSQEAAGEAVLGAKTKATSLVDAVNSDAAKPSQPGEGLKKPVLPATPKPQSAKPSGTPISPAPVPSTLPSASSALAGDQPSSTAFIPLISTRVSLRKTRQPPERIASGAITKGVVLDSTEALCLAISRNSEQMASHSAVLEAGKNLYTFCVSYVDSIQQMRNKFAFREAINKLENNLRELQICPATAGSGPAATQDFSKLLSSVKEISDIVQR
myc-tagged Nedd4.2, wild type (Q96PU5-6, form named): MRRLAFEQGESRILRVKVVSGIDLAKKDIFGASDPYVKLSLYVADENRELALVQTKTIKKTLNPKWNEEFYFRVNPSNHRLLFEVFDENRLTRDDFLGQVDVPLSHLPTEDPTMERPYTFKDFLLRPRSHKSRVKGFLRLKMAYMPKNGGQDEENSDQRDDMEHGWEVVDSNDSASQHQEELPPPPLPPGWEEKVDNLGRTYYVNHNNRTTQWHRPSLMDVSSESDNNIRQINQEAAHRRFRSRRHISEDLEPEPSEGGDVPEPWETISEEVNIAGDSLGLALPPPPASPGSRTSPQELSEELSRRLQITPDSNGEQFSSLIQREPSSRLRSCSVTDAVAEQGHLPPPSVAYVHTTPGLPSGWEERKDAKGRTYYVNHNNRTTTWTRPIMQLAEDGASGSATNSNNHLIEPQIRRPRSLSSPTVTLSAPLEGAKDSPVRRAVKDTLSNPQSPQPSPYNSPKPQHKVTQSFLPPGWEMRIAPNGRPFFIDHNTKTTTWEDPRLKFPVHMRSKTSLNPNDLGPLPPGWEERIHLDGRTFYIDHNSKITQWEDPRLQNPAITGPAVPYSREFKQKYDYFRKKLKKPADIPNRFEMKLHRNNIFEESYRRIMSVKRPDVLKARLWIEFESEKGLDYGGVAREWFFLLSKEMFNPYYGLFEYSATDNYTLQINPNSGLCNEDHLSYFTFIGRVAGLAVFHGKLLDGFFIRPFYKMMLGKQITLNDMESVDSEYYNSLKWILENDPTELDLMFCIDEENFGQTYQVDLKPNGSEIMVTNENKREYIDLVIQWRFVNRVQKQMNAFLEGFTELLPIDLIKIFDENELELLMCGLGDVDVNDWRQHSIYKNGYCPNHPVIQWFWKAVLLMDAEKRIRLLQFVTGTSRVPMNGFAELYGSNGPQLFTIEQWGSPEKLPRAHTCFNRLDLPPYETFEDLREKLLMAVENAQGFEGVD

Experiment [1] deals with T1, Flag-tagged AMOTL1 (Angiomotin-like 1), wild type (human) (UniProt Q8IY63).
T1 sequence: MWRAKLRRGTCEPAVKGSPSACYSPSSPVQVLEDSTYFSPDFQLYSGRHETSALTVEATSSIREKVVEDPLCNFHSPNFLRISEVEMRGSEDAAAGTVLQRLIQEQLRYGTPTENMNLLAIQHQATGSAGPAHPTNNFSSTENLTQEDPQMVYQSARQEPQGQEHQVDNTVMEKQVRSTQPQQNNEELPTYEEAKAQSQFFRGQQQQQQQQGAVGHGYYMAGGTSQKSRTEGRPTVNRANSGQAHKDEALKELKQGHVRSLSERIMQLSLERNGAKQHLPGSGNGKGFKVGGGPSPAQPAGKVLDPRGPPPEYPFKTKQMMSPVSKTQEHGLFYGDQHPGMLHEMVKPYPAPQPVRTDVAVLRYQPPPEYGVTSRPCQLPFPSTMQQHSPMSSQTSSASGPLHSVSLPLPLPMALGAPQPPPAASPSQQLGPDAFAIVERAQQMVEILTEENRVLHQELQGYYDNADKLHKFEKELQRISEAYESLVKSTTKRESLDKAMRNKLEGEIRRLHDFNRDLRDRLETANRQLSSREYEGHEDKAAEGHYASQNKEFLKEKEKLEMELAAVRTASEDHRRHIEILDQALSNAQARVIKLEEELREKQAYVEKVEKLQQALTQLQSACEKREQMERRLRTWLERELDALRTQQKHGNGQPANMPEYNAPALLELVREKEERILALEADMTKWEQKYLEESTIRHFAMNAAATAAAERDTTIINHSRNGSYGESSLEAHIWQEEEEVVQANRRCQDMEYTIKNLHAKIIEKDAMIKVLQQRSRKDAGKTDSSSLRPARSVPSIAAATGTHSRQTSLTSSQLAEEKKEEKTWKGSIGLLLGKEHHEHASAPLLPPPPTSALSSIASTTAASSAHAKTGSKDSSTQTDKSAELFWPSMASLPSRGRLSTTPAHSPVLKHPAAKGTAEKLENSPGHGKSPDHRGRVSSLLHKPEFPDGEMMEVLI
As to the kind of experiment: co-IP; HEK293T cells co-transfected; lysis buffer 20 mM Tris pH 7.5, 1% Triton X-100, 50 mM NaCl, 50 mM NaF, 15 mM Na4P2O7, 0.1 mM EDTA; lysate 1 h at 4°C with anti-Flag M2 resin; Western blot of bound proteins.

Experiment [2] has as its target T2, Flag-tagged AMOTL1^310–313A/367–370A (human) (UniProt Q8IY63).
T2 sequence: T1 sequence with P310A, P311A, E312A, Y313A, P367A, P368A, E369A, Y370A
The experiment is described as above.

Experiment [3] deals with Flag-tagged c-Abl, wild type (human) (UniProt P00519). Described as above.
Experiment [4] deals with endogenous YAP1 (human (endogenous in HEK293T)) (UniProt P46937). As to the kind of experiment: co-IP; endogenous proteins in HEK293T lysates; precipitated and blotted with anti-AMOTL1, anti-YAP1 and anti-Nedd4.2 antibodies; anti-CEP164 as negative control.
Experiment [5] concerns the target V5-tagged YAP1, wild type (human) (UniProt P46937). Put plainly: co-IP; data not shown; YAP1 precipitated the single and double AMOTL1 PY mutants.

Numbering of substitutions follows the chain as printed. Results are given in words; binding and its absence hold for the method and conditions named. Binding seen in cells or lysates may run through a third protein. Some results given as binding are weak or reduced against the parent protein; the word gives no strength. For part of these data: Sequences can lack the tags named with a protein.

In the case of “V5-tagged YAP1 WW1 mutant (from UniProt P46937 1-504)”, in experiment [1], the binding entry was “no binding”.
Still for that read-out and setting: the entry for “V5-tagged YAP1 WW2 mutant (from UniProt P46937 1-504)” is “binds”.
For “V5-tagged YAP1, wild type (from UniProt P46937 1-504)”, the binding entry in experiment [1] and in experiment [2] was “binds” throughout.
For the molecule “myc-tagged Nedd4.2, wild type (from UniProt Q96PU5-6 1-947) (enzyme)”, the binding entry in experiment [3] is reported as “binds”.

B1: endogenous AMOTL1 (protein, UniProt Q8IY63 1-956)
chain: T1 sequence
Take B1: in experiment [4], the binding result was “binds”.

B2: Flag-tagged AMOTL1^310–313A/367–370A (protein, UniProt Q8IY63 1-956)
chain: T1 sequence with P310A, P311A, E312A, Y313A, P367A, P368A, E369A, Y370A
For B2, the binding entry in experiment [5] was “binds”.

B3: Flag-tagged AMOTL1^367–370A (protein, UniProt Q8IY63 1-956)
chain: T1 sequence with P367A, P368A, E369A, Y370A
In the case of B3, in experiment [5], the binding result is “binds”.

B4: Flag-tagged AMOTL1^310–313A (protein, UniProt Q8IY63 1-956)
chain: T1 sequence with P310A, P311A, E312A, Y313A
Take B4: in experiment [5], the binding result is reported as “binds”.
